Consider 62 substances from the supplement of paper PMC5949888.

Most values lie at the floor of the assay. Slopes are relative: functional sequences can read slightly below zero.

The subject of the data set is Saccharomyces cerevisiae PS128 hsf1 delta, HSF1(1-493) fusion. In words: growth estimate (transactivation domain function in HSF1 fusion, heat-shock survival) (a.u. (slope of normalised read count over time)); higher = stronger growth at 37°C, i.e. more transactivation activity. The note with it: library: random library.
Consider RGGAR, for which the growth estimate was under -0.25.
Turning to ANRHISLSRSRYLPLRMKVV, the growth estimate is under -0.25.
Then QFCLSCLGSDEWVIRDVVAI, with under -0.25.
With LARTGALNADVWNRRRGPRR, the growth estimate was under -0.25.
The result for TACIWIRRCRGLGVQWISIP reads under -0.25; that for RCLHRPRDAVGRPRVGSRSI, under -0.25; that for WCCLGFVALHLLG, under -0.25.
For the substance LAISTGVTTLPGRRVTRASG, the growth estimate is under -0.25.
Take LETSPSPNPVYTGGN: the growth estimate is under -0.25.
As to GCLPRVIYEVLTVLCLAHTC, the growth estimate was under -0.25.
On to SRDLSRKKGTVQPTATPGGQ, for which the growth estimate was under -0.25.
Then PSNL, with under -0.25.
Regarding IGSPCGALVSVSCLLGSVLS, the growth estimate was under -0.25.
Consider YIR, for which the growth estimate was under -0.25.
The result for VTRRSSRQSSVQRVEKKCIT reads under -0.25; that for GLSATRADISIRLARTDWVT, under -0.25.
For CDRVTRRG, the growth estimate was under -0.25.
For the substance VVIHQGTDLTRFTTNNEAPD, the growth estimate was under -0.25.
Consider IRRCRLRGGSFFHVVSLLRV, for which the growth estimate was under -0.25.
As for NRRADGGASTHTSPLLFQAG, the growth estimate is under -0.25.
For GTPQEQKVYISQRAISQSTT, the growth estimate was under -0.25.
Turning to GFVAQVDGNTCAL, the growth estimate was under -0.25.
With MMSETLGTGGVVQRDQRLRA, the growth estimate was under -0.25.
Then QALPQEGDNRRLFEVCDLSS, with under -0.25; and QGHRV, with under -0.25.
Regarding RLGTNAGTWLVVLYRVTSRQ, the growth estimate was under -0.25.
The result for AVEG reads under -0.25; that for IIPRCETDRGPRSKSRMECY, under -0.25; that for GSACFLPLPLPLHWRNLDSG, under -0.25.
EFYRTTGGRLRIGVCRCALF: the growth estimate is under -0.25.
Then ALCLVMLNEHRTWSDGQGAE, with under -0.25; and DPWV, with 0.016.
For QAR, the growth estimate is under -0.25.
As to IGYGLVGDPRSCGILGLRSG, the growth estimate was under -0.25.
The result for VKKTPTWPQDFFPIWGHSLP reads -0.245; that for FVGLG, under -0.25.
Then TGDSDPSGEKLTDRGRIALF, with under -0.25.
For the substance GIRVRSEGGY, the growth estimate was under -0.25.
Take REVWSATGSIARMPVVHIPP: the growth estimate is under -0.25.
Regarding PIAVVGMINEQYGEIN, the growth estimate is under -0.25.
As for TAWSSHMRVRDC, the growth estimate is under -0.25.
Then LWVTPWSPASQTTEGPGTAM, with under -0.25; and TVAGSELWPEPRNCNK, with under -0.25; and DAAHDPRPGASGVNVRGLHS, with under -0.25.
As for LGIIPLSSRK, the growth estimate is under -0.25.
The result for HRMYALP reads under -0.25; that for VSLVGSPSLRYILGRLGRCG, under -0.25.
In the case of ISKGLRLGSILARREPRAAC, the growth estimate was -0.248.
IVRVGLARAVDLSLRGP: the growth estimate was under -0.25.
As to RPSNLAQSEVGYGDGADTCV, the growth estimate was under -0.25.
For RIIGSLGSPI, the growth estimate is -0.248.
As for SVESRGRLCLRELCRLNARK, the growth estimate is under -0.25.
Consider IIRGLSFWRSVRVHTRERPP, for which the growth estimate was under -0.25.
Take RGFGSRGTRL: the growth estimate is under -0.25.
AHTHRSLLKGIAQRESAMTP: the growth estimate is under -0.25.
As to QTKPLGSYGL, the growth estimate is under -0.25.
Regarding GPIQTKFYSFG, the growth estimate is under -0.25.
On to RDCRTSWDRGSLRKPTPVYW, for which the growth estimate was under -0.25.
For the substance GRPQLRPKQAERRRLCGQAR, the growth estimate was under -0.25.
Take LRDQRPKRLPVLINYIAKSA: the growth estimate was under -0.25.
Regarding VWSYRSFRREGSIGSFRRA, the growth estimate was -0.191.
The result for SFVCLCLAY reads under -0.25.
